The whole screen tested about 400,000 compounds, of which about 5,500 (1.4%) were called active. Inconclusive results, whose numbers are uncertain, are shown with a selection of clear calls. Calls come from the whole dose curve; as a rule, active = well fitted cell-killing curve with a large enough effect; inconclusive = small, poorly fitted or top-dose-only effect, or effect the other way; inactive = flat fitted curve, though single readings scatter. Where the call is inconclusive, the potency comes from a doubtful curve fit.
assay: qHTS assay for MDR1-selective chemotherapeutics: Primary screen using the parental adenocarcinoma cell KB-3-1; details: KB-3-1 viability, CellTiter-Glo ATP luminescence, 72 h; activity change, negative = cytotoxic: at 46.1 µM (top of the series); note: nearly all actives have a fitted effect of over 60% in size
Procedure, shortened: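 Luminescent ATP read-out (CellTiter-Glo) measures survival of drug-naive KB-3-1 cells after 72 h compound exposure at 37 °C. Titration series was screened from lowest to highest concentration, with DMSO vehicle plates as background controls.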
% is set by controls: 0 for no effect and ±100 for the full control effect; potency is the fitted concentration of half-maximal effect.

SMILES	activity change, negative = cytotoxic	Potency
CCCCc1ccc(S(=O)(=O)NC2CCS(=O)(=O)C2)cc1 (stereo unspecified)	inactive: -29.9%	–
COC(=O)c1cccc(Cn2nc(C)c([N+](=O)[O-])c2C)c1	inactive: -15.6%	–
CN(C(=O)CSc1nc2ccc(NC(=O)c3cccc(F)c3)cc2s1)c1ccccc1	–	inconclusive: 29.1 µM [cytotoxic, single point]
CCOC(=O)c1cc(-c2ccccc2C)n(CC2CC(c3cccc([N+](=O)[O-])c3)=NO2)n1 (stereo unspecified)	–	inconclusive: 29.1 µM [cytotoxic, single point]
O=C(CCl)Nc1cc(-c2ccccc2)nn1-c1ccccc1	–	inconclusive: 29.1 µM [cytotoxic, single point]
COc1ccc(C)cc1NC(=O)c1ccc2c(c1)OCO2	inactive: 1.99%	–
CCOc1ccc(CNC(=O)c2ccc3c(Cl)c4c(nc3c2)CCCC4)cc1	inactive: 12%	–
Cc1cccc(-n2c(C)cc(/C=N/n3cnnc3)c2C)c1	–	inconclusive: 18.4 µM [cytotoxic, single point]
COc1ccccc1NC(=O)CSc1nc2n[nH]c(C)c2c(=N)n1-c1ccccc1Cl	–	inconclusive: 29.1 µM [cytotoxic, single point]
CCN(CC)c1ccc(NC(=O)C2CC(=O)N(Cc3ccccc3)C2)cc1 (stereo unspecified)	–	inconclusive: 29.1 µM [cytotoxic, single point]
Cc1ccc(NC(=O)N2CCCC2C(=O)Nc2nnc(C(C)C)s2)cc1 (stereo unspecified)	–	inconclusive: 3.66 µM [cytotoxic, partial curve, poor fit]
NC(=O)c1ccc(NC(=O)CNC(c2ccccc2)c2ccccc2)cc1	inactive: 6.89%	–
CC1(Cc2cccc(C#N)c2)C(=O)Nc2ccc(-c3cccc(C(F)(F)F)c3)cc21 (stereo unspecified)	–	inconclusive: 29.1 µM [cytotoxic, single point]
COc1ccc(N2C(N)=C(C#N)C(c3cccnc3)C3=C2CC(C)(C)CC3=O)cc1 (stereo unspecified)	–	inconclusive: 29.1 µM [cytotoxic, single point]
O=S(=O)(c1ccc(C2CCCCC2)cc1)N1CCN(c2cc(Cl)ccc2Cl)CC1	inactive: 3.1%	–
COc1ccc(-c2cc(C(=O)N3CCCC3)c3ccccc3n2)cc1	–	inconclusive: 20.6 µM [cytotoxic, single point]
Cc1nn(-c2cc(N3CCCC3)ccc2[N+](=O)[O-])c(=O)c2ccccc12	–	inconclusive: 20.6 µM [cytotoxic, single point]
NCCCCCCNS(=O)(=O)c1cccc2ccccc12	–	inconclusive: 25.9 µM [rising, partial curve, poor fit]
Cc1ccc(NC(=O)c2ccc(NCCN)c([N+](=O)[O-])c2)cc1	–	inconclusive: 20.6 µM [rising, single point]
Cc1cc(C(=O)Nc2cccc(O)c2)c(C)o1	inactive: 0.671%	–
Cc1ccc([C@H]2N[C@]3(CCCN(Cc4ccc(Cl)cc4)C3=O)[C@H]3C(=O)N(Cc4ccccc4)C(=O)[C@@H]23)cc1	–	inconclusive: 29.1 µM [cytotoxic, single point]
CNc1nc(-c2ccccc2)nnc1C(F)(F)F	inactive: -4.23%	–
CCOc1ccc(C(=O)COC(=O)c2cc([N+](=O)[O-])ccc2N2CCOCC2)cc1	–	inconclusive: 16.4 µM [cytotoxic, single point]

An excerpt of these results, bar-delimited:
SMILES | activity change, negative = cytotoxic | Potency
COc1ccc(N2C(N)=C(C#N)C(c3cccnc3)C3=C2CC(C)(C)CC3=O)cc1 (stereo unspecified) | – | inconclusive: 29.1 µM [cytotoxic, single point]
O=S(=O)(c1ccc(C2CCCCC2)cc1)N1CCN(c2cc(Cl)ccc2Cl)CC1 | inactive: 3.1% | –
COc1ccc(-c2cc(C(=O)N3CCCC3)c3ccccc3n2)cc1 | – | inconclusive: 20.6 µM [cytotoxic, single point]

More records follow:

SMILES	activity change, negative = cytotoxic	Potency
O=C1Nc2ccccc2/C1=N/N=C/c1ccc(-c2ccc([N+](=O)[O-])cc2)o1	inactive: 2.18%	–
COc1cc(/C=C/C(C)=O)cc(OC)c1OC	–	active: 23.1 µM
O=C(NN=Cc1ccccc1O)c1cccc([N+](=O)[O-])c1	–	inconclusive: 3.26 µM [cytotoxic, full curve]
CCOc1cc(C(c2c(C)[nH]n(-c3ccccc3)c2=O)c2c(C)[nH]n(-c3ccccc3)c2=O)ccc1O	inactive: -4.2%	–
COc1cc(C)c(C)cc1S(=O)(=O)N1CCCc2ccccc21	–	inconclusive: 16.4 µM [cytotoxic, single point]
COc1ccc(N2CCN(C(=O)c3cc4c(=O)n(Cc5cccnc5)ccc4nc3C)CC2)cc1	inactive: 1.96%	–
COCCn1c(=O)[nH]c(=O)c2cc(C(=O)c3cc(OC)ccc3O)cnc21	–	inconclusive: 2.06 µM [rising, full curve, poor fit]
Cc1c(C(=O)N2CCc3ccccc3C2)oc2ccc(S(=O)(=O)N3CC(C)CC(C)C3)cc12 (stereo unspecified)	–	active: 23.1 µM
O=c1c(-c2cccs2)nc2ccccc2n1C(c1ccccn1)c1nc2ccccc2[nH]1 (stereo unspecified)	–	inconclusive: 29.1 µM [cytotoxic, single point]
COc1ccc(C(=O)c2ccc(OC)c(OC)c2OC)cc1	–	active: 5.8 µM
CC(C)c1nc2sc3ccccc3c(=O)c2c(=O)n1Cc1ccccc1	–	inconclusive: 29.1 µM [cytotoxic, single point]
CN(C)CCCn1c(SCC(=O)Nc2nc(-c3cccc(Br)c3)cs2)nc2ccccc2c1=O	–	inconclusive: 20.6 µM [cytotoxic, single point]
CN(C)c1ccc(/C=C/c2c[n+](C)cc3ccccc23)cc1	–	active: 0.461 µM
Cc1nn(Cc2ccc(Cl)cc2Cl)c(C)c1NC(=O)c1nn(C)cc1Cl	–	inconclusive: 25.9 µM [cytotoxic, partial curve, poor fit]
CC1(C(=O)Nc2cccc3cccnc23)CCN1Cc1ccc(-c2ccccc2)o1 (stereo unspecified)	inactive: 0%	–
COc1ccc2cc(CN(CCO)C(=O)c3ccc(Br)cc3)c(=O)[nH]c2c1	–	inconclusive: 20.6 µM [cytotoxic, single point]
Cc1cccc(NC(=O)C2CCN(S(=O)(=O)c3ccc(Cl)cc3)CC2)n1	inactive: -28.7%	–
N#Cc1ccc(COc2cccnc2[N+](=O)[O-])cc1	–	inconclusive: 0.164 µM [rising, full curve]
CCN(CC)S(=O)(=O)c1ccc(C(=O)N(c2ccc(C)cc2)C2C=CS(=O)(=O)C2)cc1 (stereo unspecified)	inactive: -2.4%	–
Cc1ccc2nc(Cl)nc(-c3ccccc3)c2c1	inactive: -4.56%	–
CCN1CCN(c2ccc(S(=O)(=O)N3CCOCC3)cc2NC(=O)c2cccc([N+](=O)[O-])c2)CC1	inactive: -2.52%	–
COC(=O)c1cc(NS(=O)(=O)c2ccc3c(c2)OCCO3)ccc1Cl	inactive: -8.53%	–
CC(C)[C@@H]1CC2=C(C(=O)OC(C)(C)O2)[C@H](CCc2ccccc2)O1	inactive: -19.4%	–

From PubChem BioAssay AID1347075 (National Center for Advancing Translational Sciences (NCATS), 2019)
